Measured values published in publication PMC10865787.

Chains of the proteins cited; added tags and fusions are not shown. Lines headed by an entry give the natural chain unless they say otherwise; changes in a name come on top.
UniProt P0DTC6, whole entry, stated change not applied: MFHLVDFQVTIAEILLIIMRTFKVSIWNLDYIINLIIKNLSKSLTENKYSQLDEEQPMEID

Molecular target: SARS-CoV-2 ORF6-HA (SARS-CoV-2) (UniProt P0DTC6)
Experiment: affinity purification with mass spectrometry

Cullin 4B (CUL4B), endogenous (from UniProt Q13620 1-913)
binding: binds

No constants are given. Whether binding was seen depends on the method and setting. Binding seen in cells or lysates may run through a third protein. Here binding means that the protein was enriched with, or labelled near, the bait; the list need not be complete.
